Measurements published in US20260070922A1, “PYRAZOLE AND IMIDAZOLE DERIVATIVES AS DUAL OREXIN AND KAPPA-OPIOID RECEPTORS MODULATORS COMPOSITION, METHODS FOR TREATING NEUROLOGICAL AND PSYCHIATRIC DISORDERS” (HAGER BIOSCIENCES, LLC, priority 2022, published 2026).
Structures were worked out from names or drawings and are uncertain.

Chains of the proteins cited; added tags and fusions are not shown.
UniProt P41145, whole entry: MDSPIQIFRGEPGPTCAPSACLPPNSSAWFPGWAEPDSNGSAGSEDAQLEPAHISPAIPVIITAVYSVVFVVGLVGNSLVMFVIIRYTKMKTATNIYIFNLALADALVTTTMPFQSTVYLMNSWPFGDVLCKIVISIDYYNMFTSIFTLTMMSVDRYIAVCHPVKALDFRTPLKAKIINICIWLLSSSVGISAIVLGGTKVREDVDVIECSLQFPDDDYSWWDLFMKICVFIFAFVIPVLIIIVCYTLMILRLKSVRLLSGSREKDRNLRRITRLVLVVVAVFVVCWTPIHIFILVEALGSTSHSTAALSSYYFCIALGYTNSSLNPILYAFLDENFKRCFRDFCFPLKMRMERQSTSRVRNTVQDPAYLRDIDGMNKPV
UniProt O43613, whole entry: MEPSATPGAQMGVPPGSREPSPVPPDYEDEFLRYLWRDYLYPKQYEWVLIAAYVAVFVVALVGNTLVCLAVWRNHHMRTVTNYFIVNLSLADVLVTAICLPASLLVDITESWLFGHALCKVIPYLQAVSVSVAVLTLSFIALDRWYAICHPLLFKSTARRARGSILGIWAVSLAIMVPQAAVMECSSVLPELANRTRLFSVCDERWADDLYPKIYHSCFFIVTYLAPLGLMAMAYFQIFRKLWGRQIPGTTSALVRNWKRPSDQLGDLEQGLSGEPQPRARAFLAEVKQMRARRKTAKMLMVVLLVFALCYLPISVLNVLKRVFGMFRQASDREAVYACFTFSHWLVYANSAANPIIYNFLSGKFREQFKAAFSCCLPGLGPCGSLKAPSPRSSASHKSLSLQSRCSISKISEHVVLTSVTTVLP
UniProt O43614, whole entry: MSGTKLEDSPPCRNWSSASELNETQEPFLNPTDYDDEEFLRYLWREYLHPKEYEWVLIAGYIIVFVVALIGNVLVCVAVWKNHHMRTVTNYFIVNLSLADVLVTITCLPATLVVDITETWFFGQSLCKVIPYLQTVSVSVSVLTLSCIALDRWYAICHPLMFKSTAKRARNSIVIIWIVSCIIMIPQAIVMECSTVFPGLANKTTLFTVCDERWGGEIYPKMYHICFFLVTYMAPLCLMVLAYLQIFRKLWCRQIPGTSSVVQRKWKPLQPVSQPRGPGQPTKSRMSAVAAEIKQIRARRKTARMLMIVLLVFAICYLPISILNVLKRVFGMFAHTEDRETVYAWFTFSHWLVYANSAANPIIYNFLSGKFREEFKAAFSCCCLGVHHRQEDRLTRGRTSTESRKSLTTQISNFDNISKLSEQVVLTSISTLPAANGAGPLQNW

Experiments:
[1] = target: human k-opioid receptor (kOR) (Homo sapiens, UniProt P41145); assay: Human k-opioid (KOP) receptor (agonist radioligand [3H]U-69593) binding assay, transfected RBL cell membranes
[2] = target: Orexin type 1 (OX1R) receptor (Homo sapiens, UniProt O43613); assay: In vitro orexin antagonism assay: intracellular calcium measurement (FLIPR), orexin-A 3 nM as agonist; format: cell-based
[3] = target: human orexin-2 receptor (OX2R) (Homo sapiens, UniProt O43614); assay: as above

Compound | KOR % Inh. @ 1 uM ([1]; @ 1 uM) [%] | IC50 ([1]; read-out: KOR IC50, first value of IC50/Ki cell) [nM] | Ki ([1]; read-out: KOR Ki, second value of IC50/Ki cell) [nM] | OX1R, % Inh. @ 1 uM [2] [%] | OX2R, % Inh. @ 1 uM [3] [%] | IC50 ([2]; read-out: OX1R IC50, first value of IC50/Kb cell) [nM] | Kb ([2]; read-out: OX1R Kb, second value of IC50/Kb cell) [nM]
O=C(c1c(-c2ccccc2)nn2c1COCC2)N1CCC[C@H]1Cn1ccc(-c2ccc(C(F)(F)F)cc2)n1 | 85 | 130 | 69 | 9.22 | 6.67 | – | –
O=C(c1nn2c(c1-c1ccccn1)COCC2)N1[C@H](Cn2ccc(-c3ccc(F)cn3)n2)C[C@@H]2C[C@@H]21 | – | – | – | 97 | 30 | 15 | 3
